Reference: PubChem BioAssay AID1347426 (Functional Genomics Laboratory (NCATS/FGL), 2020)
The whole screen tested about 31,000 sequences, of which about 1,400 (4.5%) were called active.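 The calls were made as follows: active = median seed-adjusted z-score above 1 or below -1; inactive = the rest.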 Some of the results follow.

experiment: Novel Modifiers of Survival Motor Neuron (SMN) Protein: Gene Identification via Genome-wide siRNA Screen; settings: HEK293T SMN2-luciferase reporter, siRNA knockdown, 72 h; actives lie on both sides;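 also: luminescence tracks full-length SMN protein made from the SMN2 reporter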
In short: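 HEK293T cells stably expressing an SMN2 splicing/cDNA-luciferase reporter were reverse-transfected with a druggable-genome siRNA library and read by luminescence at 72 hours; hits defined by MAD score above 1.0 or below -1.0.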

Sequence	median seed-adjusted z-score
CCCUUUGUAUUGUAGAUAATT against CEBPD	inactive: -0.101
GGUACAAGAUGGUCAUUGATT against ABCC8	inactive: 0.24
GUCCUGAAAAGAUAUAUGATT against NDUFB5	inactive: -0.122
CAAGUACAGAUGAAGCUCATT against MFSD8	inactive: -0.461
GGAUGGUGGCGUCCAAGAUTT against PSMB10	inactive: 0.00939
GGACAAUUCGGCAGACUAUTT against STX4	inactive: 0.759
GAUACGGUAUGAGUUUAAATT against NOS1AP	inactive: 0.00192
UGUGCUCCAUCCCACCCAATT against CARHSP1	inactive: 0.384
GGCUGAUAGGGAUCAAGGATT against TBX10	inactive: 0.175
GCCUCAAUCCCUACGGUUATT against NKX2-5	inactive: 0.719
CAAGCAUCGUCAUCAUCUATT against PLAG1	inactive: 0.859
GGGCUUUCAUGUUACACGATT against FBN1	inactive: 0
GCAACUCUUGCUAAUCAUATT against ZNF680	inactive: 0.142
GAGUUAAGGAGGUAGAUGATT against SNX5	inactive: -0.141
CAACGACAGGAAUGACAAUTT against ARHGEF7	inactive: 0.185
CAGAAUAUCUGGAACAUCATT against GSTK1	inactive: 0.234
GGAUAGUAGUGGACUCAGATT against RBM26	inactive: -0.967
AUACCAACGAGUCAACAAATT against TMED10	inactive: 0.523
CAGACAAGAUUGAACGGAUTT against LRP1	inactive: -0.781
GCAUAUUGCUUGCUAUUAATT against TPST2	inactive: -0.682
CUCACAUCCUAGACCAGUATT against CBS	inactive: -0.0696
GGAUACAAUCUUUGAUAUATT against ZNF583	inactive: -0.225
GCCUUGCAGGAAAUUCGAATT against LATS1	inactive: 0
CCAAGAUAUUGUAUACAAATT against BMI1	inactive: 0
CGAGACCUUUGACCCUCGATT against DBP	inactive: -0.115
GUCAUAACCUCACCUUAUATT against TUBE1	inactive: -0.00933
CAGGAUCAAUCGAAAGAUUTT against IRAK2	inactive: -0.06

Sequence	median seed-adjusted z-score
GGCUCAAUCGUGAACUUCATT against CLTCL1	inactive: 0.341
CACCCUGCAGGUUCCCAUATT against HSD17B14	inactive: 0.386
GCAGAGAUUUCCAAGAAAATT against GPR32	active: -1.2
GCAGGAUCAGAAGCCUAUUTT against NR3C1	inactive: -0.47
GGUAGUGAAUAACAAUGGATT against HACL1	inactive: -0.0664
GGAUGAGAAGAGAUCAGCATT against AKAP5	inactive: 0.0592
GCAGAGCGGAGUUCUUUAUTT against PHOX2A	inactive: 0.466
AGAUAGUUCUGGAACUGGATT against HES2	inactive: -0.186
GGGAGGUAUUGGUUUCAUUTT against IMPDH1	inactive: 0.558
GAGAAAUGCUUGGAGUCCATT against FKBPL	active: -1.11
CAAACGGGCUCAUCAUAAUTT against MAX	inactive: 0.0949
GAAACAAACUGAUGAUAAUTT against TCEAL1	inactive: -0.263
CAAGAGUUAUGGUCUGGGATT against GCM1	inactive: 0.0197
GCACGGACUUACACCUAUUTT against NR5A2	inactive: -0.275
GAGUGUUCAGCAAACCGUATT against MED20	active: -1.66
GGACCCAAUCAACUCAAUATT against SS18	inactive: 0.34
GAACCUCAGUUGAGUAUUUTT against RPE	inactive: 0.616
CCUUCUAAGCAGACCCUUUTT against ZNF776	inactive: -0.394
GAUCUGUGAUGAGAACGGATT against VWF	inactive: 0.159
GCGAAUACCUGAUAGCACATT against RIMS2	inactive: 0.534
GCCUAUCGAUGGGUAGCAATT against NDUFA9	inactive: -0.325
GCGAAUUGCUAGAUGUUUATT against RAB11FIP4	inactive: 0.249
GCGAUUGUCUGGAUAAACUTT against EYA2	inactive: 0.111
CAGACACCUUCAUACCUUATT against BHMT	inactive: 0
CACUGAUCAUGACAACCAATT against POLS	inactive: -0.334
GCCUCAUGCUAGACAACAATT against MFHAS1	inactive: -0.267
CAUCUGGAAGGAACCCUUUTT against ALDH3B2	inactive: 0.171

Reprinted from above (five entries):
Sequence	median seed-adjusted z-score
CAAACGGGCUCAUCAUAAUTT against MAX	inactive: 0.0949
GAAACAAACUGAUGAUAAUTT against TCEAL1	inactive: -0.263
CAAGAGUUAUGGUCUGGGATT against GCM1	inactive: 0.0197
GCACGGACUUACACCUAUUTT against NR5A2	inactive: -0.275
GAGUGUUCAGCAAACCGUATT against MED20	active: -1.66
